Source: the supplement of paper PMC10849652
Some of the results follow.

Sequences of proteins named here, by UniProt entry; tags and fusion partners are left off. A change or cut given only in a name is not applied to a line headed by its entry.
UniProt Q9UJX3, whole entry, looked up: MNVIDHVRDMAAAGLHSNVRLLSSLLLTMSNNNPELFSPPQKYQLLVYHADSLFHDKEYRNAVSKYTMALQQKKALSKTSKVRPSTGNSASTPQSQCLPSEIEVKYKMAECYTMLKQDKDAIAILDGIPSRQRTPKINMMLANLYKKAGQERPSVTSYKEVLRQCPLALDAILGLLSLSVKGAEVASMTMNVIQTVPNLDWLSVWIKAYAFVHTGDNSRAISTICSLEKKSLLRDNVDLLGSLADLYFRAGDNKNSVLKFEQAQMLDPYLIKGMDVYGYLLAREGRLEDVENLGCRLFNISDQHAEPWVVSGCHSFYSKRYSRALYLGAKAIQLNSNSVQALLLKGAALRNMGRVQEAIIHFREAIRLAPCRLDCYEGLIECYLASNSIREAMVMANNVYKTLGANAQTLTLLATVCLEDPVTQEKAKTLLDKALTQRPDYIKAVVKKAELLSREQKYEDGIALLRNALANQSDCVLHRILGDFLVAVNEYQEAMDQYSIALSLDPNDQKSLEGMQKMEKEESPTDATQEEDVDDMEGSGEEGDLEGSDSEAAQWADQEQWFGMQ
UniProt P16157: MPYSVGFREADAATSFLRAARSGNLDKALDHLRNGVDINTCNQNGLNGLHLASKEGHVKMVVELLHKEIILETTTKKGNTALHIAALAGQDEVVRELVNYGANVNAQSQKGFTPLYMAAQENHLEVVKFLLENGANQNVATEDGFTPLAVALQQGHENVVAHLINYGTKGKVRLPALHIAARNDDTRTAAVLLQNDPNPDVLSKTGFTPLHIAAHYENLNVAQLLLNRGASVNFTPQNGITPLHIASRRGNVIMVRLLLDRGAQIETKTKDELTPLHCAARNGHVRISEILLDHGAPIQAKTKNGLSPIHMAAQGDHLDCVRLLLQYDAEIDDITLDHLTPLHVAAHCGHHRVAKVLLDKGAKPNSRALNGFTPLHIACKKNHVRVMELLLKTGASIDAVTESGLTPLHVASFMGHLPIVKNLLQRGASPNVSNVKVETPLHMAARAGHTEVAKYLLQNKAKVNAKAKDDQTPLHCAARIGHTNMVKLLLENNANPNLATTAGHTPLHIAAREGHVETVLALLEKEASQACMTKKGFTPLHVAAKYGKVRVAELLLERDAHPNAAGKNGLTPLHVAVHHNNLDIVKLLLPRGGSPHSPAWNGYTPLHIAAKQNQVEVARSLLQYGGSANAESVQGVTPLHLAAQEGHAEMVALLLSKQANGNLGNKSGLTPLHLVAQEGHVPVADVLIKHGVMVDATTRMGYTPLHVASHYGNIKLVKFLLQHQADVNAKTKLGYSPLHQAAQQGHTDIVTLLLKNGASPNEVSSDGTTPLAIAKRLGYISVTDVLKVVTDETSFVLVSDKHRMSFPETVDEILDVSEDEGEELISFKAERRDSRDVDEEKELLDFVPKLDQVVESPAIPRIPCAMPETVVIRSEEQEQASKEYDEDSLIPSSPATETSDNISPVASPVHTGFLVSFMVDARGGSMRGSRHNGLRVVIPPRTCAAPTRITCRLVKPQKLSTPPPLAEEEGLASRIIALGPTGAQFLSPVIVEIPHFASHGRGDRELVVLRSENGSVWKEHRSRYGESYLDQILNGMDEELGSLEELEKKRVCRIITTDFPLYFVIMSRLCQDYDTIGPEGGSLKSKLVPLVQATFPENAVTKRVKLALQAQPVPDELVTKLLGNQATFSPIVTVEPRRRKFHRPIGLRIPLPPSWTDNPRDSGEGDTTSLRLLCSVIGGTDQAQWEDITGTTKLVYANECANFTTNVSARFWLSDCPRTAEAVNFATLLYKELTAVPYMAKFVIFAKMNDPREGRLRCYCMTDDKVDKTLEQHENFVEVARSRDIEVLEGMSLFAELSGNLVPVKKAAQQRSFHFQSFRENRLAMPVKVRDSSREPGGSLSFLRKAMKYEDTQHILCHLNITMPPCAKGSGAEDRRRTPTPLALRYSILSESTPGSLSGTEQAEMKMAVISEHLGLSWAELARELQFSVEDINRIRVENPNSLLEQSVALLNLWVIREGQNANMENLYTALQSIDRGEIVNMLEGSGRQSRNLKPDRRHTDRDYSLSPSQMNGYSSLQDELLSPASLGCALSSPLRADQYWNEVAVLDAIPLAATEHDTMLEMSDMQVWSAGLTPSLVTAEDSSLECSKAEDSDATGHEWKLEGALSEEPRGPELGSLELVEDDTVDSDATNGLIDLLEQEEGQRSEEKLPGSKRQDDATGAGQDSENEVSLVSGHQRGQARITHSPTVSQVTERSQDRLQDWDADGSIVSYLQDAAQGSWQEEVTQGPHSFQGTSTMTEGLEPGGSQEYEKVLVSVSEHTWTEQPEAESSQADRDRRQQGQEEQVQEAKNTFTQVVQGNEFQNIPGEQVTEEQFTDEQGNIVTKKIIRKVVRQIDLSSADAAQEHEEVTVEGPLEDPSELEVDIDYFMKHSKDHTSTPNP
UniProt Q6P6C2: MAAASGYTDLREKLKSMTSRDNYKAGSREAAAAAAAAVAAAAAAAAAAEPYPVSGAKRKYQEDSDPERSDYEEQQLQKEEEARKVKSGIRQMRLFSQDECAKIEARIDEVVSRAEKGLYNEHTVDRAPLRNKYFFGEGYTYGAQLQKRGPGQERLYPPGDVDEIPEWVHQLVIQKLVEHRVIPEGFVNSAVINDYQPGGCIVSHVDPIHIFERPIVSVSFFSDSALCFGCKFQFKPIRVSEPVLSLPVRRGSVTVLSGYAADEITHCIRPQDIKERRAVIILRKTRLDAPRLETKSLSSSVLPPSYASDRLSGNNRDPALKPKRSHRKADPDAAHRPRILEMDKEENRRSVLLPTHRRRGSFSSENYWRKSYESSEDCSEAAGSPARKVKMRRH
UniProt Q96CW1: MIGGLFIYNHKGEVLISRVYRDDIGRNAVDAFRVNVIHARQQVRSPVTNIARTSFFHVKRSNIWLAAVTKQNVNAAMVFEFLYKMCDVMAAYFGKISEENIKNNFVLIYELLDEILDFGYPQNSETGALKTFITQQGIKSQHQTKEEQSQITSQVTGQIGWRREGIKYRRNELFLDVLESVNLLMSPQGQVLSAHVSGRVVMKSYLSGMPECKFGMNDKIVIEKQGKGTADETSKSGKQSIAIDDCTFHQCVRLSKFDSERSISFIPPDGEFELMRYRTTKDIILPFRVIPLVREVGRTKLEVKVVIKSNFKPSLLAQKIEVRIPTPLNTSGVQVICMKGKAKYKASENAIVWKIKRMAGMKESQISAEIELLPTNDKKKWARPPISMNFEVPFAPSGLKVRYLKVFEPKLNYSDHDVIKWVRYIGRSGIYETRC
UniProt Q92688: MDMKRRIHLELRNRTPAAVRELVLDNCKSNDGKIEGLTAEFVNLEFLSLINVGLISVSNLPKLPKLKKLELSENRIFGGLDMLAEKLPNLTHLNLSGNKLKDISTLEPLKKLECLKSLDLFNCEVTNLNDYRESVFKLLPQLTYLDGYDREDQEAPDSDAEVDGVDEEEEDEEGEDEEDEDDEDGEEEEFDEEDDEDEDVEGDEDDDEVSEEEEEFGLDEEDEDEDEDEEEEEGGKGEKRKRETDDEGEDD
UniProt P61966: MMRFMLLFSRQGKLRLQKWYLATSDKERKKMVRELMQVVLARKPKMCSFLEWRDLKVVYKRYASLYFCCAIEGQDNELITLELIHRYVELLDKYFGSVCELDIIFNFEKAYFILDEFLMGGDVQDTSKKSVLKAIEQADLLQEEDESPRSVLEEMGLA
UniProt O94788: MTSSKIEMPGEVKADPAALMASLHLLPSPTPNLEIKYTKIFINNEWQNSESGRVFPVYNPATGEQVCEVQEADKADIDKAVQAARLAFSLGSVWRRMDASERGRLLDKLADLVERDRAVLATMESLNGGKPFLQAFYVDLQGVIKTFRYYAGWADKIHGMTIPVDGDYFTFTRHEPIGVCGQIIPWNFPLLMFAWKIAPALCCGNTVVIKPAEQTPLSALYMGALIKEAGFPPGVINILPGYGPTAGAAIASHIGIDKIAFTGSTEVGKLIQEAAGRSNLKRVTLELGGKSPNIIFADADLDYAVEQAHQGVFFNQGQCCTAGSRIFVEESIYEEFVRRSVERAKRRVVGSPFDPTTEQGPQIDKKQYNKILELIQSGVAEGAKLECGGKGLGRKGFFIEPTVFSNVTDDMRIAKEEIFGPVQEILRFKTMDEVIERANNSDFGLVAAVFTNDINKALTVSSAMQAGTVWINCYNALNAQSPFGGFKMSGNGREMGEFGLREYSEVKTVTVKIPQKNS
UniProt Q02252: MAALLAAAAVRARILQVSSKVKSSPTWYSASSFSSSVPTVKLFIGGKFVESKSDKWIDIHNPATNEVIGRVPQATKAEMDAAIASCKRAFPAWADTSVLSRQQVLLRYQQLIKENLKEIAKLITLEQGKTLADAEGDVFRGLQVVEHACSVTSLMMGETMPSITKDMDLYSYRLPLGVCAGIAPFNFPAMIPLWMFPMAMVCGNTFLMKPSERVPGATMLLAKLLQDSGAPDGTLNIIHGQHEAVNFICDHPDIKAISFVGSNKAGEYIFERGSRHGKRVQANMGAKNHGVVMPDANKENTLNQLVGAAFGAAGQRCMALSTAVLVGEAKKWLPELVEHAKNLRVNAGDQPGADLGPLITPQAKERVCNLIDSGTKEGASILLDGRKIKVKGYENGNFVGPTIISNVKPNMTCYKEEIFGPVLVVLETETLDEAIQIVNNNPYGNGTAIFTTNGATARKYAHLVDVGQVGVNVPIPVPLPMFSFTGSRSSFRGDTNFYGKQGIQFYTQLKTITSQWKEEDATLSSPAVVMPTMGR
UniProt O14617: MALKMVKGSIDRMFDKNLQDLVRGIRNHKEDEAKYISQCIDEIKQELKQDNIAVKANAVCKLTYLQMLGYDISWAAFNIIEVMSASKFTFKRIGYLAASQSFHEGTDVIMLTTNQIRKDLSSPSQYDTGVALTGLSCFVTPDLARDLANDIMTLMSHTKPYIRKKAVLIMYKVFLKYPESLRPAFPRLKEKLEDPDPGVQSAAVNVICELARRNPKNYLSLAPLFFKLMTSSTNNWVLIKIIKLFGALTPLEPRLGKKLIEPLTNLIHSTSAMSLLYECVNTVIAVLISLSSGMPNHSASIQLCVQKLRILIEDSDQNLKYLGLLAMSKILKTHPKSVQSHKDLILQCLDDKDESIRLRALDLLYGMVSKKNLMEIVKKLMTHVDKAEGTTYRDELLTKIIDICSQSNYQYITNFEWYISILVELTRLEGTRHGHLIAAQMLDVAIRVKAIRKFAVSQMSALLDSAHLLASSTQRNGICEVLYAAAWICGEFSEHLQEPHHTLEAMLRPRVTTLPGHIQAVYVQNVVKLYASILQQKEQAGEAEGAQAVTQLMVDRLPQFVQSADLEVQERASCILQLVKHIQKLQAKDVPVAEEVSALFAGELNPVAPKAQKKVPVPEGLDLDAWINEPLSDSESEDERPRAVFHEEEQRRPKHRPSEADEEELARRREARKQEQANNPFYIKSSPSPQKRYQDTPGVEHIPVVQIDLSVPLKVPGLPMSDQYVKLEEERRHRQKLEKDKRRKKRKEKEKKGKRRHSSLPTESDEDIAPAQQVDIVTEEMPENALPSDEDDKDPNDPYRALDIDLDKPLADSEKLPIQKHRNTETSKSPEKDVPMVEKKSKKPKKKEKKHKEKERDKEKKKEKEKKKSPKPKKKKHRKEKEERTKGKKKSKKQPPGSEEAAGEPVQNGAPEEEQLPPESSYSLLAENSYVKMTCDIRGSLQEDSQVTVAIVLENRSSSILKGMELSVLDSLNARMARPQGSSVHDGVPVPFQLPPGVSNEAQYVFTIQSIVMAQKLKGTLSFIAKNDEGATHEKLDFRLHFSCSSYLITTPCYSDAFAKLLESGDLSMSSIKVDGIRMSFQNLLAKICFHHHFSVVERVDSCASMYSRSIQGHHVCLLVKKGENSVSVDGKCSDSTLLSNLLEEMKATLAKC
UniProt Q92685: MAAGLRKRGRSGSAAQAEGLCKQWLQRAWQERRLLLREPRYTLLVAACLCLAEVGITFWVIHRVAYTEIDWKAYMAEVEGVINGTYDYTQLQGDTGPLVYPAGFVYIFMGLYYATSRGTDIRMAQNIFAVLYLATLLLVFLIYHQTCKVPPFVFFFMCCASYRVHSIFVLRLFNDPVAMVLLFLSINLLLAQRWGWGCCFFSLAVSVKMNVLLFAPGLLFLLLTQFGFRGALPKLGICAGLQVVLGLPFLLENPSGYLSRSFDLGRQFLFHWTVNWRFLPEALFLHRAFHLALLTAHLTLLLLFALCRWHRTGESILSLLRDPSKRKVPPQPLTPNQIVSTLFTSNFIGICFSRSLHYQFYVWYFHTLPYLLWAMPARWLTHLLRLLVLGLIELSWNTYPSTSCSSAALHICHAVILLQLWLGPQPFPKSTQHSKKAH
UniProt P39687: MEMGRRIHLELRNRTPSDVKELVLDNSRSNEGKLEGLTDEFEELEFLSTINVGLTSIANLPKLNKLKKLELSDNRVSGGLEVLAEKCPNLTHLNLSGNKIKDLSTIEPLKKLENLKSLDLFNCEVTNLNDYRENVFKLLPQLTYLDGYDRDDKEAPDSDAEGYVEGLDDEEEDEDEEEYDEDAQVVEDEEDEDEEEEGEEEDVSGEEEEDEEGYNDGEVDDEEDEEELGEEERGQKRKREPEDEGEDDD

Assays:
Test in all cases: log2 fold change, soluble protein after heating vs DMSO (PISA); higher = thermal stabilisation; K562 lysate, 10 uM; active = over 0.2 and 3.5 SD of the protein, either way, in both replicates (recomputed)
lapatinib = compound: CS(=O)(=O)CCNCc1ccc(-c2ccc3ncnc(Nc4ccc(OCc5cccc(F)c5)c(Cl)c4)c3c2)o1 [lapatinib]
Method in brief: (§1)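 Pellets of K562 cells were dounce-homogenised in PBS pH 7.4 with 1 mM MgCl2, and the crude extract was held at 1 mg/mL protein for a 30 min treatment with 10 μM compound. Aliquots were heated for 3 min over 48°C-58°C and pooled before NP-40 was added to 0.5% at 4°C. The supernatant from 21,000xg for 90 min was quantified by TMTpro 16plex LC-MS/MS with channel sums equalised. Values are reported from duplicates as log-two fold change in thermal stability relative to solvent controls.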

pictilisib = compound: CS(=O)(=O)N1CCN(Cc2cc3nc(-c4cccc5[nH]ncc45)nc(N4CCOCC4)c3s2)CC1 [pictilisib]
Method in brief: as §1

crizotinib = compound: C[C@@H](Oc1cc(-c2cnn(C3CCNCC3)c2)cnc1N)c1c(Cl)ccc(F)c1Cl [crizotinib]
Method in brief: as §1

[1] = compound: C[C@H](C1=CC=C(C=C1)C(=O)NC2=C3C=CNC3=NC=C2)N
Method in brief: as §1

duvelisib = compound: C[C@H](Nc1ncnc2nc[nH]c12)c1cc2cccc(Cl)c2c(=O)n1-c1ccccc1 [duvelisib]
Method in brief: as §1

gandotinib = compound: Cc1cc(Nc2cc(CN3CCOCC3)c3nc(C)c(Cc4ccc(Cl)cc4F)n3n2)n[nH]1 [gandotinib]
Method in brief: as §1

tozasertib = compound: Cc1cc(Nc2cc(N3CCN(C)CC3)nc(Sc3ccc(NC(=O)C4CC4)cc3)n2)n[nH]1 [tozasertib]
Method in brief: as §1

doramapimod = compound: Cc1ccc(-n2nc(C(C)(C)C)cc2NC(=O)Nc2ccc(OCCN3CCOCC3)c3ccccc23)cc1 [doramapimod]
Method in brief: as §1

bafetinib = compound: Cc1ccc(NC(=O)c2ccc(CN3CC[C@H](N(C)C)C3)c(C(F)(F)F)c2)cc1Nc1nccc(-c2cncnc2)n1 [bafetinib]
Method in brief: as §1

[2] = compound: Cc1cccc(CC(=O)N2CCc3c2ccc(-c2cn(C)c4ncnc(N)c24)c3F)n1
Method in brief: as §1

nilotinib = compound: Cc1cn(-c2cc(NC(=O)c3ccc(C)c(Nc4nccc(-c5cccnc5)n4)c3)cc(C(F)(F)F)c2)cn1 [nilotinib]
Method in brief: as §1

[3] = compound: Cc1nc(Nc2n[nH]c3c2CN(C(=O)N[C@H](CN(C)C)c2ccccc2)C3(C)C)c2sccc2n1
Method in brief: as §1

dasatinib = compound: Cc1nc(Nc2ncc(C(=O)Nc3c(C)cccc3Cl)s2)cc(N2CCN(CCO)CC2)n1 [dasatinib]
Method in brief: as §1

[4] = compound: Cc1ncc(-c2ccnc(Nc3ccc(S(C)(=O)=O)cc3)n2)n1C(C)C
Method in brief: as §1

[5] = compound: Cn1cc(-c2ccc3c(c2)CCN3C(=O)Cc2cccc(C(F)(F)F)c2)c2c(N)ncnc21
Method in brief: as §1

quisinostat = compound: Cn1cc(CNCC2CCN(c3ncc(C(=O)NO)cn3)CC2)c2ccccc21 [quisinostat]
Method in brief: as §1

tipifarnib = compound: Cn1cncc1[C@@](N)(c1ccc(Cl)cc1)c1ccc2c(c1)c(-c1cccc(Cl)c1)cc(=O)n2C [tipifarnib]
Method in brief: as §1

[6] = compound: NC(=O)Nc1cc(-c2cccc(F)c2)sc1C(=O)N[C@H]1CCCNC1
Method in brief: as §1

[7] = compound: NC(=O)c1cnc(N[C@@H]2CCCC[C@@H]2N)nc1Nc1cccc(-n2nccn2)c1
Method in brief: as §1

[8] = compound: NC1(c2ccc(-c3nc4ccn5c(=O)[nH]nc5c4cc3-c3ccccc3)cc2)CCC1
Method in brief: as §1

Measured: log2 fold change

AP3B2 isoform 4 (UniProt Q13367)
inactive: lapatinib 0.011 | pictilisib -0.021 | crizotinib -0.005 | [1] -0.058 | duvelisib -0.04 | gandotinib 0.055 | tozasertib 0.021 | doramapimod 0.07 | bafetinib -0.004 | [2] 0.06 | nilotinib 0.005 | [3] -0.027 | dasatinib 0.021 | [4] 0.021 | [5] -0.01 | quisinostat -0.001 | tipifarnib -0.03 | [6] -0.015 | [7] -0.004 | [8] -0.002

ANAPC7 (UniProt Q9UJX3)
inactive: lapatinib -0.017 | pictilisib 0.002 | crizotinib -0.029 | [1] -0.009 | duvelisib -0.018 | gandotinib -0.042 | tozasertib -0.019 | doramapimod 0.023 | bafetinib -0.036 | [2] 0.002 | nilotinib -0.004 | [3] -0.006 | dasatinib -0.004 | [4] 0.008 | [5] 0.02 | quisinostat -0.054 | tipifarnib -0.019 | [6] 0.03 | [7] 0 | [8] -0.018

ANK1 isoform 14 (UniProt P16157)
inactive: lapatinib -0.008 | pictilisib -0.019 | crizotinib -0.039 | [1] 0.041 | duvelisib -0.017 | gandotinib -0.049 | tozasertib 0.001 | doramapimod -0.029 | bafetinib -0.057 | [2] -0.011 | nilotinib 0.015 | [3] -0.014 | dasatinib -0.037 | [4] -0.004 | [5] 0.012 | quisinostat -0.037 | tipifarnib 0.016 | [6] 0.068 | [7] 0.001 | [8] -0.027

ALDH18A1 (UniProt P54886)
inactive: lapatinib -0.052 | pictilisib -0.063 | crizotinib -0.034 | [1] 0.001 | duvelisib -0.017 | gandotinib -0.064 | tozasertib 0.002 | doramapimod 0.047 | bafetinib -0.006 | [2] 0.018 | nilotinib 0 | [3] -0.023 | dasatinib -0.027 | [4] -0.004 | [5] 0.007 | quisinostat -0.06 | tipifarnib -0.001 | [6] 0.025 | [7] 0.023 | [8] -0.019

Quoted at random: two records from the list
AP3B2 isoform 4 (UniProt Q13367)
inactive: lapatinib 0.011 | pictilisib -0.021 | crizotinib -0.005 | [1] -0.058 | duvelisib -0.04 | gandotinib 0.055 | tozasertib 0.021 | doramapimod 0.07 | bafetinib -0.004 | [2] 0.06 | nilotinib 0.005 | [3] -0.027 | dasatinib 0.021 | [4] 0.021 | [5] -0.01 | quisinostat -0.001 | tipifarnib -0.03 | [6] -0.015 | [7] -0.004 | [8] -0.002

ALDH18A1 (UniProt P54886)
inactive: lapatinib -0.052 | pictilisib -0.063 | crizotinib -0.034 | [1] 0.001 | duvelisib -0.017 | gandotinib -0.064 | tozasertib 0.002 | doramapimod 0.047 | bafetinib -0.006 | [2] 0.018 | nilotinib 0 | [3] -0.023 | dasatinib -0.027 | [4] -0.004 | [5] 0.007 | quisinostat -0.06 | tipifarnib -0.001 | [6] 0.025 | [7] 0.023 | [8] -0.019

Continued.

ALKBH5 (UniProt Q6P6C2)
inactive: lapatinib -0.13 | pictilisib -0.074 | crizotinib 0.012 | [1] -0.055 | duvelisib -0.056 | gandotinib 0.204 | tozasertib -0.036 | doramapimod -0.088 | bafetinib 0.023 | [2] 0.155 | nilotinib 0.151 | [3] -0.099 | dasatinib 0.057 | [4] 0.018 | [5] -0.008 | quisinostat 0.139 | tipifarnib 0.106 | [6] 0.002 | [7] 0.078 | [8] -0.071

AP2M1 (UniProt Q96CW1)
inactive: lapatinib 0.001 | pictilisib -0.001 | crizotinib -0.014 | [1] -0.112 | duvelisib 0.04 | gandotinib 0.124 | tozasertib 0.02 | doramapimod 0.032 | bafetinib 0.024 | [2] -0.002 | nilotinib -0.01 | [3] 0.018 | dasatinib 0 | [4] 0.055 | [5] -0.007 | quisinostat -0.015 | tipifarnib -0.021 | [6] -0.03 | [7] -0.018 | [8] -0.003

AMPD2 (UniProt Q01433)
inactive: lapatinib -0.004 | pictilisib -0.001 | crizotinib 0.027 | [1] -0.042 | duvelisib 0.009 | gandotinib 0.026 | tozasertib 0.005 | doramapimod 0 | bafetinib -0.014 | [2] 0.028 | nilotinib 0 | [3] -0.004 | dasatinib 0.024 | [4] -0.008 | [5] 0.01 | quisinostat 0.004 | tipifarnib 0.026 | [6] 0.005 | [7] -0.002 | [8] 0.005

ANP32B (UniProt Q92688)
inactive: lapatinib 0.042 | pictilisib 0.012 | crizotinib 0.006 | [1] -0.032 | duvelisib 0.017 | gandotinib 0.015 | tozasertib 0.016 | doramapimod 0.031 | bafetinib 0.041 | [2] -0.008 | nilotinib -0.004 | [3] 0.025 | dasatinib 0.015 | [4] -0.018 | [5] -0.04 | quisinostat 0.02 | tipifarnib -0.006 | [6] -0.017 | [7] -0.022 | [8] 0.001

AP1S1 (UniProt P61966)
inactive: lapatinib 0.015 | pictilisib 0.022 | crizotinib 0.066 | [1] 0.002 | duvelisib 0.008 | gandotinib -0.037 | tozasertib 0.002 | doramapimod 0.019 | bafetinib 0.037 | [2] -0.021 | nilotinib 0.025 | [3] 0.024 | dasatinib 0.032 | [4] -0.015 | [5] 0.031 | quisinostat 0.153 | tipifarnib 0.025 | [6] -0.049 | [7] 0.005 | [8] 0.026

ALDH1A2 (UniProt O94788)
inactive: lapatinib 0.012 | pictilisib 0.001 | crizotinib 0.002 | [1] -0.01 | duvelisib 0.046 | gandotinib -0.001 | tozasertib -0.001 | doramapimod 0.006 | bafetinib 0.079 | [2] 0.013 | nilotinib 0.014 | [3] -0.02 | dasatinib -0.008 | [4] -0.009 | [5] 0.002 | quisinostat 0.036 | tipifarnib 0.011 | [6] -0.012 | [7] -0.008 | [8] 0.024

ALDH6A1 (UniProt Q02252)
inactive: lapatinib -0.04 | pictilisib -0.028 | crizotinib -0.023 | [1] -0.032 | duvelisib 0.073 | gandotinib -0.033 | tozasertib 0.021 | doramapimod -0.017 | bafetinib 0.122 | [2] -0.001 | nilotinib -0.053 | [3] 0.161 | dasatinib -0.144 | [4] -0.022 | [5] 0.06 | quisinostat -0.027 | tipifarnib -0.026 | [6] 0.018 | [7] -0.038 | [8] -0.013

AP3D1 isoform 5 (UniProt O14617)
inactive: lapatinib 0.008 | pictilisib 0.01 | crizotinib -0.02 | [1] -0.061 | duvelisib 0.023 | gandotinib 0.05 | tozasertib 0.019 | doramapimod 0.059 | bafetinib -0.042 | [2] 0.081 | nilotinib -0.001 | [3] 0.018 | dasatinib -0.043 | [4] 0.002 | [5] 0.003 | quisinostat -0.002 | tipifarnib -0.002 | [6] 0.016 | [7] -0.007 | [8] 0.03

ALG3 (UniProt Q92685)
inactive: lapatinib -0.069 | pictilisib 0.031 | crizotinib -0.057 | [1] -0.15 | duvelisib -0.104 | gandotinib 0 | tozasertib -0.04 | doramapimod 0.037 | bafetinib -0.061 | [2] 0.261 | dasatinib -0.049 | [5] 0.068 | quisinostat 0.077 | [6] -0.017 | [7] 0.092 | [8] -0.036

AMDHD2 isoform 3 (UniProt Q9Y303)
inactive: lapatinib 0.014 | pictilisib -0.081 | crizotinib 0.025 | [1] 0.006 | duvelisib -0.043 | gandotinib 0.008 | tozasertib -0.013 | doramapimod 0.003 | bafetinib 0.093 | [2] 0.009 | nilotinib 0.011 | [3] -0.076 | dasatinib -0.043 | [4] -0.027 | [5] 0.026 | quisinostat 0.035 | tipifarnib 0.01 | [6] -0.011 | [7] -0.022 | [8] 0.002

ANP32A (UniProt P39687)
active: [8] -0.359
inactive: lapatinib 0.068 | pictilisib -0.001 | crizotinib 0 | [1] -0.063 | duvelisib -0.003 | gandotinib 0.065 | tozasertib 0.014 | doramapimod 0.096 | bafetinib 0.126 | [2] 0 | nilotinib -0.003 | [3] 0.03 | dasatinib 0.125 | [4] -0.011 | [5] -0.039 | quisinostat -0.006 | tipifarnib 0.002 | [6] -0.097 | [7] 0.012
